According to PMC8326132:
Results are given in words; binding and its absence hold for the method and conditions named. Binding seen in cells or lysates may run through a third protein. Some entries that bind do so weakly or less than the wild type.

Sequences of proteins named here, by UniProt entry; tags and fusion partners are left off. Residues count along the entry.
UniProt Q9Y6M1: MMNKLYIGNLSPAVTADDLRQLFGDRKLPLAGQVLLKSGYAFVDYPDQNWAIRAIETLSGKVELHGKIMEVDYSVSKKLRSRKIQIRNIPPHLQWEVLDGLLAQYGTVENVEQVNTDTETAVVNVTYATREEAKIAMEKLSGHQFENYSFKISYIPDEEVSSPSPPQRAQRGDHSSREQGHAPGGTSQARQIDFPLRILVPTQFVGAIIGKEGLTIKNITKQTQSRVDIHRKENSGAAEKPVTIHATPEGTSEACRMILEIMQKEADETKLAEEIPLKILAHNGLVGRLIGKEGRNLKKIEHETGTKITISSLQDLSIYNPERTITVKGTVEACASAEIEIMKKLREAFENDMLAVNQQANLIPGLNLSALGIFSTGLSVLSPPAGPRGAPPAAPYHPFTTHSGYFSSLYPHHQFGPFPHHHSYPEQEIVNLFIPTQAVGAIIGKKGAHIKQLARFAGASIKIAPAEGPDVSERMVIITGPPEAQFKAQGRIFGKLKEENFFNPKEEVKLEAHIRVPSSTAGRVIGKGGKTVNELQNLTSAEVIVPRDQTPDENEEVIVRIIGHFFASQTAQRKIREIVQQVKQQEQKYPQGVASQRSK
UniProt P63165, residues 1-97: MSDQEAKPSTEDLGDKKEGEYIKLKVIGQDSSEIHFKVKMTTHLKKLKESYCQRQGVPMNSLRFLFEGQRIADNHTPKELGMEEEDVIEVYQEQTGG

Key:
[1] = target: Insulin-like growth factor 2 mRNA-binding protein 2 (IGF2BP2), endogenous (human (endogenous in HEK293T, U87 and U251)) (UniProt Q9Y6M1); experiment: co-IP; lysates of U87 and U251 glioma cells; IP with anti-SUMO1, anti-IGF2BP2 or anti-IgG; western blot with anti-IGF2BP2 and anti-SUMO1
[2] = target: Insulin-like growth factor 2 mRNA-binding protein 2 (IGF2BP2), endogenous (human (endogenous in HEK293T, U87 and U251)) (UniProt Q9Y6M1); experiment: co-IP; lysates of HEK293T cells stably transfected with sh-NC, SENP1 knockdown or Ubc9 knockdown; IP with anti-SUMO1, anti-IGF2BP2 or normal IgG; western blot with anti-IGF2BP2 and anti-SUMO1

binding [1]: binds
binding [2]: binds
Substance: SUMO1 (small molecule ubiquitin-like modifier 1), endogenous (from UniProt P63165 1-97)
